Among the data in paper PMC10353892 are binding values, retold here.

The chains behind the UniProt entries cited, without tags or fusion partners.
UniProt P46824: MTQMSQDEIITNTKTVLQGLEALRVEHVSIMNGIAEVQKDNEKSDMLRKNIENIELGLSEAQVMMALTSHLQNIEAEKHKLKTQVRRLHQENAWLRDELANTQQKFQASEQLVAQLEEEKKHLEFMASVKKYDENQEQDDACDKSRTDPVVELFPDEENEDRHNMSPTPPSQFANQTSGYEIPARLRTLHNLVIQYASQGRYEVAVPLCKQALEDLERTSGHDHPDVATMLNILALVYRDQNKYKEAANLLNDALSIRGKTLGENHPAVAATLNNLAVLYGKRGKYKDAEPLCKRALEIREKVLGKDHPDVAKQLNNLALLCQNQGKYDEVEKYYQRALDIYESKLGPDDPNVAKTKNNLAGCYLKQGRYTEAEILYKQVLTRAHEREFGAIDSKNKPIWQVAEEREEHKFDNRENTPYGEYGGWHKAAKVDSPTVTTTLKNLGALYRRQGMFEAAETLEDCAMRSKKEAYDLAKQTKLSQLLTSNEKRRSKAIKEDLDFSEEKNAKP
UniProt Q00168: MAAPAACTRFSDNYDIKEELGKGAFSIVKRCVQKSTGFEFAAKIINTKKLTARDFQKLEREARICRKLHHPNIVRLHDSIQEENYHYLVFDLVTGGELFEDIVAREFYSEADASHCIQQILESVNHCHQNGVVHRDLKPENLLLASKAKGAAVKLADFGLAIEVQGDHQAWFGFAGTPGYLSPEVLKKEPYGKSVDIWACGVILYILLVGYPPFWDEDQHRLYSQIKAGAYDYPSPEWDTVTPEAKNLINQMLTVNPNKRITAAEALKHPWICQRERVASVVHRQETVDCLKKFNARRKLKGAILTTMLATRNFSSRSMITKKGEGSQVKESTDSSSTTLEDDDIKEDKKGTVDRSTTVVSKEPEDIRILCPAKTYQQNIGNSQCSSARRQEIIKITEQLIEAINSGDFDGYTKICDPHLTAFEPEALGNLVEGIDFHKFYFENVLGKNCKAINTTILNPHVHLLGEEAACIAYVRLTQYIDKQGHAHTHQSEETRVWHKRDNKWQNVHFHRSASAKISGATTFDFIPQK

Experiment [1] has as its target T1, Tws-GFP (Drosophila) (UniProt P36872).
T1 sequence: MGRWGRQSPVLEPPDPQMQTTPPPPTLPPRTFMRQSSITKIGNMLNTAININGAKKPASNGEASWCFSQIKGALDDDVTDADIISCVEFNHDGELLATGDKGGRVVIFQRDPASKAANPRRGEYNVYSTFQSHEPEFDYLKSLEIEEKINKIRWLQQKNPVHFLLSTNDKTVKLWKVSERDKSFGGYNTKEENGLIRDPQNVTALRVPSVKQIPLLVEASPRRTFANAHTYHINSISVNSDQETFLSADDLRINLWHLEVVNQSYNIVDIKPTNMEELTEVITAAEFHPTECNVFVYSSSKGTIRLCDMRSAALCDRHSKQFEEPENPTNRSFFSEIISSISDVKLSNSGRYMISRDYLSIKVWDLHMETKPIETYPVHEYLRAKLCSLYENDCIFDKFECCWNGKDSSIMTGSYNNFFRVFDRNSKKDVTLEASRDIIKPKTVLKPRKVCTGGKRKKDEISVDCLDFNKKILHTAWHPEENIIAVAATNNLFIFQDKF
The experiment can be described thus: affinity purification with mass spectrometry; GFP-Trap agarose on lysates of 0-2 h embryos expressing the GFP fusion, GFP alone as control; 20 mM Tris pH 7.5, 150 mM NaCl, 2 mM MgCl2, 0.5% Triton X-100, 4°C; three experiments.

The target in experiment [2] is T2, GFP-Ote^WT (transgenic embryos) (Drosophila) (UniProt P20240).
T2 sequence: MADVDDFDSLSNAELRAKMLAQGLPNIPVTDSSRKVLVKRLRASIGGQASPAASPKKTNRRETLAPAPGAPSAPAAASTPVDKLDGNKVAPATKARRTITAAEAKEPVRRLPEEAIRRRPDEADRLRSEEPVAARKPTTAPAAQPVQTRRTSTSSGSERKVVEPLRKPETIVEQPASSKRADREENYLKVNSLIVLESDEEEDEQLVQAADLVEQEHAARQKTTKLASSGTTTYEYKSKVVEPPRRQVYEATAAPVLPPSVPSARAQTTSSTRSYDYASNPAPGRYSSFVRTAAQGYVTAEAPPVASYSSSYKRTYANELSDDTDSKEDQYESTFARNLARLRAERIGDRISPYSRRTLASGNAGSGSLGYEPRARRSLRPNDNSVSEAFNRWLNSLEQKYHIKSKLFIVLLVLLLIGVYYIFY
The experiment is described as above.

No constants are given. Whether binding was seen depends on the method and setting. In cells and extracts the contact can be indirect. A yes stands for co-enrichment or nearness to the bait. Other partners may have been found. Tags and fused reporters may be left off the sequences shown.

Regarding Klc (from UniProt P46824 1-508), the binding result in experiment [1] is “binds”.

In the case of “Vtd/Scc1 (Drosophila (endogenous in embryos))”, the binding entry in experiment [1] is listed as “binds”.

For the molecule “CaMKII (from UniProt Q00168 1-530) (enzyme)”, the binding entry in experiment [1] is recorded as “binds”.

As to “Lost (Drosophila (endogenous in embryos))”, in experiment [1], the binding entry was “binds”.

“girdin (Drosophila (endogenous in embryos))”: the binding entry in experiment [2] is on record as “binds”.

“MEP-1 (Drosophila (endogenous in embryos))”: in experiment [1], the binding entry is listed as “binds”.

As for “Nocte (Drosophila (endogenous in embryos))”, the binding result in experiment [1] is reported as “binds”.

In the case of “Rod (Drosophila (endogenous in embryos))”, in experiment [2], the binding result is “binds”.

“Ctf4 (Drosophila (endogenous in embryos))”: in experiment [1], the binding entry is given as “binds”.

B1: Bocksbeutel (Bocks) (protein, UniProt Q709R6 1-399)
chain: MSDLSYLDTLGNKELLAKCLEHGLPGVPVTDSTRSVIIRRLKAKITGVPLNKSKSASKKAIPRRETVHGSQVTTPTSEPVRRTPGKSAGRTSSNNNKISEQSRRTIAYGLDNTSISGRSVQTTTTVSDMSSQSEDDDSYMVDSPVPNYSKDQQPRRYVSLAKSGVLTTSYTREVDQPLYEQEDIPRSYTYERPHVPAATLHALPTYEPRIEPSTYRPTDLGFSRPLLTQTNLNSTSYEESSTYNPKLSPISPRNTFSGSARPFGGPAPAPAPIRQRQSVPVSGSNLARGRLLQPTTAVNTLYPQLNEFYDQPNDAGEPMETESESEVEEVPINSHFQKNRFSPLARKPLVRHHDQVSPMAQFRALAVSLDQKYNLKFYLILVVSVMLATMVYVVLTPNA
As to B1, the binding result in experiment [2] was “binds”.

B2: Akap200 (protein, UniProt Q9VLL3 1-753)
chain: MGKAQSKRSIDITTDPKKVGEGDEVAGKVEKIDVDQKTDAPAVNGDAATPKEGGDEAAAVEKKETEEHSENDKDLTTEKSAAVAEGGDAVAETAKGEEGSPKEAAAGEDITPLADESIKSKSKKDKVKKKWSFRSISFGKKDKQKPAKSEEATSPTSGTTSPTTAEAEAAPAGDAAVAEPSVATNGEAEKPAETATATSEPASKDEKPAENGSATEQEKQANGETEKAAPAPSTVEEAAKPKPAEEPATVTATESNTTATEEVPVKESQPEPEVVTNGHGAGEALTNGSSNGLAESPVTETAPVADNIPSNVDDEPPHQNGTNGTTTPPPTPVATEIEKGQQIEASSEVIETVTPSQAEEEVVAAIIKAVSSEPEAETETETEAEGFVLVAPVSTEVEVPVSISPIEPVAEVSQVKIEPLVEIPEVEAKSVADVSEADTESVPKVSELKTEVSEIEFESVIVETRSSSPPPPLPKSPPPSRVSAFVLSEDVIEEQVTPNVPEVNDVKPDEIEQQAISIVAEITEQAAEIVTEQEKQQEEAKVDSVPETIEESSSTVVVEEVLPVQNDEVTAPSPTPDDVQKPIEDQDTPDEKESYPVPDPIDPAAVNDEVAVTEAVDCEVEKETGSISSNVAESSSVSDEQAAIENQVEILEEQTVAVEETTEQETSDQQVISEEAHSDNDKENEIDLVENIISDLDAPITKAGGDLLVELDARSAEQEGESNNKVDLAKDLKEKNAAAADVTTQEQLPVTCE
Turning to B2, the binding result in experiment [1] was “binds”.

B3: chb (Orbit) (protein, UniProt Q9NBD7 1-1491)
chain: MAYRKPSDLDGFIQQMPKADMRVKVQLAEDLVTFLSDDTNSIVCTDMGFLIDGLMPWLTGSHFKIAQKSLEAFSELIKRLGSDFNAYTATVLPHVIDRLGDSRDTVREKAQLLLRDLMEHRVLPPQALIDKLATSCFKHKNAKVREEFLQTIVNALHEYGTQQLSVRVYIPPVCALLGDPTVNVREAAIQTLVEIYKHVGDRLRPDLRRMDDVPASKLAMLEQKFDQVKQEGLLLPSALKNTNGNGVGLDEADNIGLRERPTRMIKRPLHSAVSSSLRPKPNVNDVTGDAGAVTMESFESSFEVVPQLNIFHAKDMDDIYKQVLVIISDKNADWEKRVDALKKIRALLILSYHTQPQFVAVQLKELSLSFVDILKEELRSQVIREACITIAYMSKTLRNKLDAFCWSILEHLINLIQNSAKVIASASTIALKYIIKYTHAPKLLKIYTDTLNQSKSKDIRSTLCELMVLLFEEWQTKALERNATVLRDTLKKSIGDADCDARRHSRYAYWAFRRHFPELADQIYGTLDIAAQRALEREREGGGGGGTGTGTGTAPETRRTVSRIGRTPGTLQKPTPSMRSISAVDTAAAQRAKVRAQYTLYSRQRKPLGPNNSNQASMTGAAASGSLPRPRLNSNSGGTPATTPGSVTPRPRGRAGVSQSQPGSRSTSPSTKLRDQYGGIGNYYRGATGAIPKKASGIPRSTASSRETSPTRSGGGLMKRSMYSTGAGSRRTPERNNPVRPSAAARLLAQSREAEHTLGVGDDGQPDYVSGDYMRSGGMRMGRKLMGRDESDDIDSEASSVCSERSFDSSYTRGNKSNYSLSGSHTRLDWSTQRAPFDDIETIIQFCASTHWSERKDGLISLTQYLADGKELTQQQLKCVLDMFRKMFMDTHTKVYSLFLDTVTELILVHANELHEWLFILLTRLFNKLGTDLLNSMHSKIWKTLQVVHEYFPTQLQLKELFRIISDSTQTPTTKTRIAILRFLTDLANTYCKSSDFPSDQSQACERTVLKLAQLAADQKSMELRSQARSCLVALYNLNTPQMTLLLADLPKVYQDSARSCIHSHMRRQSQSCNSGANSPSSSPLSSSSPKPLQSPSVGPFASLQSHHHQLSISSTSPRSRQSSVEQELLFSSELDIQHNIQKTSEEIRHCFGGQYQTALAPNGFNGHLQYHDQGQQDSCASLSSNSKTQSSANTTQSNTPESATMRLDNLERERTTQNAKSPTDDAKVITVSINMAENGELILASNLMESEVVRVALTLTKDQPVELLQTSLTNLGICIKGGNCELPNKHFRSIMRMLLNILEAEHTDVVIAGLHVLSKIMRSNKMRHNWMHFLELILLKIIQCYQHSKEALRDIDSMIPRIAPSLPLDLSINIVNPVIATGEFPTNLCAIKILLEVTEHHGSEITDAHLDIVFPNLARSADDTQSMVRKAAVFCIVKLYFVLGEEKVKPKLSVLNPSKVRLLNVYIEKQRNCISGGGSSTKNSSAASSS
With B3, the binding entry in experiment [1] is reported as “binds”.

B4: CG7414 (eIF2A) (protein, UniProt Q9VNX8 1-638)
chain: MAAAADLVVPTLAIRSSVAVELWSSAGSKQPFEHKPHLPREETKSSRSICFSSNGRYFAYSNGQEVKVLQASRDSAASWPVICVLPRPKAFYLQFSPRGSYLCTWEHYAITKDRPEGSPNLLVYEVATGVEVFAIVQKNQADWQPSWSADESIFALVVGGEALFYDLGEGAEKGFATTSRKIGGSRGGMLSLGPGNCPPFLAFYTPGAKGAPSMCKLYKYPALGQNQTVACKSFFQADRVEMLWNKRGSGLLLLTSTEVDKSGASYYGNQAVHFMATKGDTCSVPLSKEGPVHCVKWSPKATEFVVVYGFMPSKAALYNLKCDVVFDFGEGPRNCAYFNPFGNLIALAGFGNLPGAVEVWDVSKREKLANLKCADTTVFEWHPNGEWFVTATTAPRLRISNGFKVYHYSGALLHETMWPQGQELLGIEWQQFADKTFSEPKITKAKHEGIKSSQPEASKKAYTPPHLRLLKEGKNPEKYLPQPSIPGLAPTAAAGGVNGNKRNNKNKQRSARKDVNVVNGGDADSAPTEVVDQAAPVARQSPVFVAAEERKPQHTPRQKYQPDNAADQPPNSYGQGHPNGQHISDKERKIRSVAKKLSDIKKLKVRRSQGENLELNQLNKIKMEAQYLDELKALKQSA
B4: in experiment [1], the binding result is given as “binds”.

B5: otefin (protein, UniProt P20240 1-424)
chain: T2 sequence
In the case of B5, the binding entry in experiment [1] was “binds”.

B6: HBS1 (protein, UniProt Q9W074 1-670)
chain: MSRHRIVRTMDYNDEYDGYDDIYGHSVEDEHCISPTDAQQWLYDRARGQQSISAFISKNKDIQEEEADEDEDEDAAFAKARRDSESFQMPQLDEIEQAKLSSCVDEVRSVVGDAVSERRIVETSMKFDYDMQKILDEILNEETNKSAKPAVNKMKAPAAPVLPKTVSKTVPTPPPKISLKEPRRGFEIPSPKVPSSPVVSGRNTPVDISAGDDISRSSATVFKVSKEQAVRNARQLYEKERADQKSHIHMIVIGHVDAGKSTLMGHLLYDTGNVSQRVMHKHEQESKKLGKQSFMYAWVLDETGEERARGITMDVGQSRIETKTKIVTLLDAPGHKDFIPNMISGATQADVALLVVDATRGEFESGFELGGQTREHAILVRSLGVNQLGVVINKLDTVGWSQDRFTEIVTKLKSFLKLAGFKDSDVSFTPCSGLTGENLTKKAQEPALTNWYSGRHLLDVIENFKIPERAIDRPLRMSVSDIYKGTGSGFCISGRVETGVLCLNDKVLVGASREQAQVKSLTMNEFPQTCVFAGDQVSVTLPALDINNVTVGCIISDPQTPIPVTTRFQARIIVFNVKVPITMGFPVLLHHQSLIEPAVVCKLTASIHKSTGEVVKKKPRCLGNNSCALVELETSRPICIERYADFKELGRVMLRVAGVTIAAGMVTKIR
B6: the binding entry in experiment [1] was “binds”.
